{
  "source": "patent US20120101257A1",
  "about": "(UNIVERSITE DE MONTREAL, priority 2009, published 2012)",
  "key": {"[1]": {"test": "general procedure: Fmoc solid-phase peptide synthesis; Rink amide resin; Rink amide MBHA resin", "details": "whole synthesis; for crude mass: TFA salt"}, "[2]": {"test": "general procedure: Fmoc solid-phase peptide synthesis; SynPhase lantern", "details": "whole synthesis, analytical RP-HPLC (UV 214), formic acid salt (crude: TFA salt)"}, "[3]": {"test": "general procedure: Fmoc solid-phase peptide synthesis; polystyrene Rink amide lantern", "details": "whole synthesis, UV 214, TFA salt"}, "[4]": {"details": "UV 214, formic acid salt (crude: TFA salt)"}, "[5]": {"details": "formic acid salt (crude: TFA salt)"}, "[6]": {"details": "214 nm, formic acid salt (crude: TFA salt)"}, "[7]": {"details": "on resin and lantern loading, formic acid salt (crude: TFA salt)"}, "[8]": {"details": "UV 214, formic acid salt (crude: TFA salt), cyclic, sequence written open"}, "[9]": {"details": "formic acid salt (crude: TFA salt), cyclic, sequence written open"}},
  "data": [
    {"substance": "D-Arg-(R)-Bgl-D-Thr-D-Val-D-Glu-D-Leu-D-Ala-NH2", "values": [
      {"measurement": "final HPLC purity", "setting": "[1]; 214 nm, formic acid salt (crude: TFA salt), cyclic, sequence written open", "value": ">99", "unit": "%"},
      {"measurement": "crude HPLC purity", "setting": "[1]; 214 nm, formic acid salt (crude: TFA salt), cyclic, sequence written open, run 1", "value": 87, "unit": "%"},
      {"measurement": "crude HPLC purity", "setting": "[1]; 214 nm, formic acid salt (crude: TFA salt), cyclic, sequence written open, run 2", "value": 45, "unit": "%"},
      {"measurement": "isolated yield", "setting": "[1]; on Fmoc loading of Rink resin, formic acid salt (crude: TFA salt), cyclic, sequence written open", "value": 15, "unit": "%"},
      {"measurement": "crude mass", "setting": "[1]; scale 0.078 mmol, cyclic, sequence written open", "value": 35, "unit": "mg"},
      {"measurement": "isolated yield", "setting": "[1]; scale 0.078 mmol, formic acid salt (crude: TFA salt), cyclic, sequence written open", "value": 24, "unit": "%"}
    ]},
    {"substance": "Agl-D-Tyr-Iaa-D-Glu-D-Leu-NH2", "values": [
      {"measurement": "crude HPLC purity", "setting": "[1]; [4]", "value": 39, "unit": "%"},
      {"measurement": "final HPLC purity", "setting": "[1]; [4]", "value": ">99", "unit": "%"},
      {"measurement": "isolated yield", "setting": "[1]; [5]", "value": 6, "unit": "%"}
    ]},
    {"substance": "D-Arg-D-Tyr-D-Thr-(S)-Bgl-D-Glu-D-Leu-D-Ala-NH2", "values": [
      {"measurement": "crude HPLC purity", "setting": "[1]; [6]", "value": 87, "unit": "%"},
      {"measurement": "final HPLC purity", "setting": "[1]; [6]", "value": ">99", "unit": "%"},
      {"measurement": "isolated yield", "setting": "[1]; [5]", "value": 14, "unit": "%"},
      {"measurement": "crude mass", "setting": "[1]; scale 0.105 mmol", "value": 28, "unit": "mg"}
    ]},
    {"substance": "(R)-Agl-D-Tyr-D-Thr-D-Pro-D-Glu-D-Leu-D-Ala-NH2", "values": [
      {"measurement": "crude HPLC purity", "setting": "[2]", "value": 55, "unit": "%"},
      {"measurement": "final HPLC purity", "setting": "[1]; [6]", "value": ">95", "unit": "%"},
      {"measurement": "isolated yield", "setting": "[1]; [7]", "value": 10, "unit": "%"}
    ]},
    {"substance": "D-Arg-D-Tyr-Agl(4-OH)-D-Val-D-Glu-D-Leu-D-Ala-NH2", "values": [
      {"measurement": "crude HPLC purity", "setting": "[3]", "value": 50, "unit": "%"}
    ]},
    {"substance": "(R)-Agl-D-Tyr-D-Thr-(R)-Agl-D-Glu-D-Leu-D-Ala-NH2", "values": [
      {"measurement": "crude HPLC purity", "setting": "[2]", "value": 30, "unit": "%"},
      {"measurement": "final HPLC purity", "setting": "[1]; [6]", "value": ">99", "unit": "%"},
      {"measurement": "difficulty met", "setting": "[1]; [5]", "value": "The addition of a second (R)-Agl residue presented a more difficult challenge than the first"},
      {"measurement": "isolated yield", "setting": "[1]; [7]", "value": 5, "unit": "%"}
    ]},
    {"substance": "D-Arg-D-Tyr-D-Thr-(R)-Bab-D-Glu-D-Leu-D-Ala-NH2", "values": [
      {"measurement": "crude HPLC purity", "setting": "[1]; [6]", "value": "6% of 57 crude mixture"},
      {"measurement": "final HPLC purity", "setting": "[1]; [6]", "value": ">99", "unit": "%"},
      {"measurement": "isolated yield", "setting": "[1]; [5]", "value": 4, "unit": "%"}
    ]},
    {"substance": "D-Arg-D-Tyr-D-Thr-(S)-Agl-D-Glu-D-Leu-D-Ala-NH2", "values": [
      {"measurement": "crude HPLC purity", "setting": "[1]; [6]", "value": 18, "unit": "%"},
      {"measurement": "final HPLC purity", "setting": "[1]; [6]", "value": ">99", "unit": "%"},
      {"measurement": "isolated yield", "setting": "[1]; [7]", "value": 5, "unit": "%"}
    ]},
    {"substance": "D-Arg-D-Tyr-D-Thr-D-Val-D-Glu-D-Leu-(S)-Bgl-D-Ala-NH2", "values": [
      {"measurement": "crude HPLC purity", "setting": "[1]; [6]", "value": 97, "unit": "%"},
      {"measurement": "final HPLC purity", "setting": "[1]; [6]", "value": ">99", "unit": "%"},
      {"measurement": "isolated yield", "setting": "[1]; [5]", "value": 18, "unit": "%"},
      {"measurement": "crude mass", "setting": "[1]; scale 0.070 mmol", "value": 27, "unit": "mg"}
    ]},
    {"substance": "His-D-Trp-Ala-(S)-Bgl-D-Phe-Lys-NH2", "values": [
      {"measurement": "crude HPLC purity", "setting": "[1]; [8]", "value": 52, "unit": "%"},
      {"measurement": "final HPLC purity", "setting": "[1]; [8]", "value": ">99", "unit": "%"},
      {"measurement": "isolated yield", "setting": "[1]; [9]", "value": 6, "unit": "%"}
    ]},
    {"substance": "D-Arg-D-Tyr-D-Thr-D-Val-(R)-Agl-D-Leu-D-Ala-NH2", "values": [
      {"measurement": "crude HPLC purity", "setting": "[1]; [8]", "value": 36, "unit": "%"},
      {"measurement": "final HPLC purity", "setting": "[1]; [8]", "value": ">99", "unit": "%"},
      {"measurement": "isolated yield", "setting": "[1]; [9]", "value": 21, "unit": "%"}
    ]},
    {"substance": "His-D-Trp-Ala-Trp-(S)-Bgl-Lys-NH2", "values": [
      {"measurement": "crude HPLC purity", "setting": "[1]; [8]", "value": 92, "unit": "%"},
      {"measurement": "final HPLC purity", "setting": "[1]; [8]", "value": ">99", "unit": "%"},
      {"measurement": "isolated yield", "setting": "[1]; [9]", "value": 5, "unit": "%"}
    ]},
    {"substance": "(S)-Bgl-D-Tyr-D-Thr-D-Val-D-Glu-D-Leu-D-Ala-NH2", "values": [
      {"measurement": "crude HPLC purity", "setting": "[1]; [6]", "value": 70, "unit": "%"},
      {"measurement": "final HPLC purity", "setting": "[1]; [6]", "value": ">99", "unit": "%"},
      {"measurement": "isolated yield", "setting": "[1]; [5]", "value": 13, "unit": "%"},
      {"measurement": "crude mass", "setting": "[1]; scale 0.102 mmol", "value": 34, "unit": "mg"}
    ]},
    {"substance": "D-Arg-D-Tyr-D-Thr-D-Val-(S)-Bgl-D-Leu-D-Ala-NH2", "values": [
      {"measurement": "crude HPLC purity", "setting": "[1]; [6]", "value": 90, "unit": "%"},
      {"measurement": "final HPLC purity", "setting": "[1]; [6]", "value": ">99", "unit": "%"},
      {"measurement": "isolated yield", "setting": "[1]; [5]", "value": 13, "unit": "%"},
      {"measurement": "crude mass", "setting": "[1]; scale 0.105 mmol", "value": 40, "unit": "mg"}
    ]},
    {"substance": "(S)-Bgl-D-Trp-Ala-Trp-D-Phe-Lys-NH2", "values": [
      {"measurement": "crude HPLC purity", "setting": "[1]; [8]", "value": 39, "unit": "%"},
      {"measurement": "final HPLC purity", "setting": "[1]; [8]", "value": 92, "unit": "%"},
      {"measurement": "isolated yield", "setting": "[1]; [9]", "value": 22, "unit": "%"}
    ]}
  ]
}
